This test has as its target full-length wild-type RASAL2 (XLG3-EGFP vector) (human (amplified from MDA-MB-468)) (UniProt Q9UJF2). In words: co-IP; EGFP-vector RASAL2 variants transfected into MDA-MB-468; 1 mg precleared lysate on GFP-Trap agarose beads at 4 C overnight, immunoblotting. For orientation: A western blot detects proteins with antibodies after separation by electrophoresis.

Sequences of proteins named here, by UniProt entry; tags and fusion partners are left off. A change or cut given only in a name is not applied to a line headed by its entry.
UniProt Q9UJF2: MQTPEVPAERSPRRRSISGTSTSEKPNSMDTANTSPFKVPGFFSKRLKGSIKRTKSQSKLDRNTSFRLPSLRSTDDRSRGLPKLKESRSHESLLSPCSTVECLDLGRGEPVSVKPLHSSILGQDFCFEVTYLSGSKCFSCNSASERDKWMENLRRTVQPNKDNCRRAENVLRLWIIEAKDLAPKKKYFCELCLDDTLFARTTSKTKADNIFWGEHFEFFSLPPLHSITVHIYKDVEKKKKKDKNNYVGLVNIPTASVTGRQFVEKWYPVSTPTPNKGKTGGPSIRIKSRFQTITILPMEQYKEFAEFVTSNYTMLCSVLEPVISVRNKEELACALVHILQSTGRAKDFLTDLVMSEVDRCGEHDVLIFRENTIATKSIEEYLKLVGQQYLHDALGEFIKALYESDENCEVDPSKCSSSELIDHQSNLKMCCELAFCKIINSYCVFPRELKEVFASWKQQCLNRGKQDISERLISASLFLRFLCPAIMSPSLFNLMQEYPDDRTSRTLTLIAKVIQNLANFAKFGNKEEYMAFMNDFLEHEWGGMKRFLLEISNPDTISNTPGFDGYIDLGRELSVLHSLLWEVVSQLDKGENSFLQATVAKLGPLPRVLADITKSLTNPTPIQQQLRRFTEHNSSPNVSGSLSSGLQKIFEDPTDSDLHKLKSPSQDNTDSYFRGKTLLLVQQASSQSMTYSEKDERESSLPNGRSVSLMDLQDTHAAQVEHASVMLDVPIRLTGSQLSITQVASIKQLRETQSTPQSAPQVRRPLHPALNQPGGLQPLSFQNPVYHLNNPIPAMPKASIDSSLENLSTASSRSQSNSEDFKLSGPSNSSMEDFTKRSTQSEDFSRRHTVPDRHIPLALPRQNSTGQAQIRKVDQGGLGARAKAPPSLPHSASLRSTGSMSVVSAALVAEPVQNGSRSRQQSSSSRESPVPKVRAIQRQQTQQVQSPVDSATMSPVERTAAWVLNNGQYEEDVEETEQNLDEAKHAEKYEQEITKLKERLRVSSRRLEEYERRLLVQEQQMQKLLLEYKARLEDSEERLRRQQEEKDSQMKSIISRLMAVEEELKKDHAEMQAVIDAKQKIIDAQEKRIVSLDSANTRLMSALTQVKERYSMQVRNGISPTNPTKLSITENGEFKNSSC
UniProt P10415: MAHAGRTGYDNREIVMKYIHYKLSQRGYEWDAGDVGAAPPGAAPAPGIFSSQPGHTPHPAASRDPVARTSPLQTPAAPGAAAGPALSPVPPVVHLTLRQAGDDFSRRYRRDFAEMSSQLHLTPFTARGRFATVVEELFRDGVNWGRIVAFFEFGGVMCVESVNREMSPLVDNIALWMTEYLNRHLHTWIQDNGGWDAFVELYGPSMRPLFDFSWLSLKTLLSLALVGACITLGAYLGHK

No constants are given. Whether binding was seen depends on the method and setting. Binding seen in cells or lysates may run through a third protein. Binding can be weak; no strength is given.

On to BCL2 (from UniProt P10415 1-239), for which the binding entry is “binds”.

These data come from paper PMC11996675.
